For one data set, the system named is host cell DNA. Further details: species or system Chinese Hamster Ovary (CHO) cells.
The subject of the next data set is host cell protein. Further details: species or system Chinese Hamster Ovary (CHO) cells.
In a further data set the test system is host cell DNA (HC DNA). Further details: species or system Chinese Hamster Ovary (CHO) cells.
For another data set, the system named is VWF propeptide. As to the kind of experiment: Anion exchange chromatography (Poros XQ) with OG in wash step 2: VWF propeptide clearance. The conditions noted are these: 60 mM OG in wash step 2 buffer.

Each structure is given as a SMILES string. Several values for one entry are separate records, joined by “and”; a condition that tells them apart may be missing. Equal entries are not always repeated.

As to `CCCCCCCCO[C@@H]1O[C@H](CO)[C@@H](O)[C@H](O)[C@H]1O` [OG, n-octyl-beta-D-glucopyranoside], in the data set with host cell DNA, the “better host cell DNA clearance compared to PS80/TNBP treatment” value is on record as 7.4 fold, the “host cell DNA clearance across the purification step” value came out at 1700 fold, the “host cell DNA in the eluate fraction” value is recorded as 180 pg/mL and the “host cell DNA purification factor” value is recorded as “about 25,000”. Further, in the data set with host cell protein, the “better host cell protein clearance compared to PS80/TNBP treatment” value is recorded as 1.9 fold, the “host cell protein in the eluate” value came out at 117 ppm and the “normalized host cell protein clearance across the step” value is 1270 fold. In addition, in the data set on host cell DNA (HC DNA), the “host cell DNA content lower than in buffer control” value came to 126 fold and the “host cell DNA content lower than in the PS80/TNBP control” value stood at 214 fold. Also, the “Amount VWF propeptide in eluate (relative to rD′D3-FP)” value in the data set on VWF propeptide is recorded as 6,228 ppm. In addition, in the data set on VWF propeptide (VWF propeptide), the “Reduction factor (relative to harvest material)” value was ~150 and 148.
